Measured values as given in PubChem BioAssay AID192 (DTP/NCI, 2004).
The list shows only some results of the screen, not a fair sample: it is rich in T/C values a quarter to a half above the control, in often repeated tests (any T/C) and in doses without a T/C. Further doses and runs are listed elsewhere. T/C: endpoint of the treated group in % of that of the vehicle group. Some doses have a count of surviving animals in place of a T/C: the source holds a T/C of zero for them, seemingly a mark for toxic or unscored doses. Some survivor counts are full or nearly so, which does not show that the dose was tolerated: survival well below the control is almost never listed, so the zero probably covers shortened survival too. Survivors were counted at the toxicity check, usually on the fifth day, unless a day is given; later deaths do not show. Schedules are NCI's codes, read here as Q, the interval in days (D) or hours (H), X, the number of doses. Some entries were tested several times; the results are listed from low to high. For survival time, this PubChem deposit counts one and a half times the control or more as active, and values a quarter to a half above the control carry no call in these data; other NCI protocols may use other cut-offs. Some T/C values carry the count of animals alive at the toxicity check (mostly the fifth day); where none is given, no animal had died by that day. Signs of the kind (2×) say how often a value occurs here.

Tested on: BDF1 mice, B16 melanoma ip, median survival T/C
Assay: NCI In Vivo Anticancer Drug Screen. Data for tumor model B16 Melanoma (intraperitoneal) in B6D2F1 (BDF1) mice
Conditions: T/C endpoint: median survival time, higher T/C = longer survival
Method in brief: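 Transplantable tumor model; survival or tumor size measured; reported as T/C, treated over vehicle control.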

[1] = dose: 37.5 mg/kg/injection, schedule: Q01DX009 (ip), vehicle: saline
[2] = dose: 60.0 mg/kg/injection, schedule: Q01DX009 (ip), vehicle: saline with Tween-80
[3] = dose: 100.0 mg/kg/injection, schedule: Q01DX009 (ip), vehicle: saline with Tween-80
[4] = dose: 150.0 mg/kg/injection, schedule: Q01DX009 (ip), vehicle: Klucel (hydroxypropylcellulose) (HPC)
[5] = dose: 150.0 mg/kg/injection, schedule: Q01DX009 (ip), vehicle: saline
[6] = dose: 300.0 mg/kg/injection, schedule: Q01DX009 (ip), vehicle: Klucel (hydroxypropylcellulose) (HPC)
[7] = dose: 300.0 mg/kg/injection, schedule: Q01DX009 (ip), vehicle: saline
[8] = dose: 400.0 mg/kg/injection, schedule: Q01DX009 (ip), vehicle: Klucel (hydroxypropylcellulose) (HPC)

## CN(C)/N=N/c1nc[nH]c1C(N)=O
dose: 18.75 mg/kg/injection, schedule: Q01DX009 (ip), vehicle: Klucel (hydroxypropylcellulose) (HPC)
  survivor count: 10 of 10
dose: 21.6 mg/kg/injection, schedule: Q01DX009 (ip), vehicle: saline with Tween-80
  T/C: 125 % of control
dose: 36.0 mg/kg/injection, schedule: Q01DX009 (ip), vehicle: saline with Tween-80
  T/C: 125 % of control
dose: 37.5 mg/kg/injection, schedule: Q01DX009 (ip), vehicle: Klucel (hydroxypropylcellulose) (HPC)
  T/C: 93, 97 (2×), 102, 107, 108, 109, 110, 111, 113, 118, 131, 140 % of control
dose: 37.5 mg/kg/injection, schedule: Q01DX009 (ip), vehicle: saline with Tween-80, evaluated on day 45
  T/C: 100, 105, 114, 115, 123 % of control
dose: 37.5 mg/kg/injection, schedule: Q01DX009 (ip), vehicle: saline with Tween-80, evaluated on day 60
  T/C: 104 and 115 % of control
[1]
  T/C: 100, 104, 105, 106, 109, 115, 117 [5 of 6 alive], 125 % of control
  survivor count: 5 of 6
dose: 50.0 mg/kg/injection, schedule: Q01DX009 (ip), vehicle: distilled water + Tween-80
  T/C: 133 % of control
[2]
  T/C: 125 % of control
dose: 75.0 mg/kg/injection, schedule: Q01DX009 (ip), vehicle: Klucel (hydroxypropylcellulose) (HPC)
  T/C: 95 [5 of 6 alive], 102, 105, 110, 112, 112 [5 of 6 alive], 112 [9 of 10 alive], 114, 116, 117, 118, 130, 178 % of control
dose: 75.0 mg/kg/injection, schedule: Q01DX009 (ip), vehicle: saline with Tween-80, evaluated on day 45
  T/C: 102, 121, 123 (2×), 131 % of control
dose: 75.0 mg/kg/injection, schedule: Q01DX009 (ip), vehicle: saline with Tween-80, evaluated on day 60
  T/C: 106, 119, 120 % of control
dose: 75.0 mg/kg/injection, schedule: Q01DX009 (ip), vehicle: saline
  T/C: 97, 100, 104, 106, 107, 109 (2×), 114, 115, 128 % of control
[3]
  T/C: 128 and 134 % of control
dose: 100.0 mg/kg/injection, schedule: Q04DX003 (ip), vehicle: saline with Tween-80, evaluated on day 5
  T/C: 113 % of control
dose: 100.0 mg/kg/injection, schedule: Q04DX003 (ip), vehicle: saline with Tween-80, evaluated on day 6
  T/C: 103 [8 of 9 alive], 104, 112 % of control
[4]
  T/C: 93, 97, 107, 109, 115, 117, 120, 120 [5 of 6 alive], 122, 125, 132 [8 of 10 alive], 137 % of control
  survivor count: 6 of 6
dose: 150.0 mg/kg/injection, schedule: Q01DX009 (ip), vehicle: saline with Tween-80, evaluated on day 45
  T/C: 110, 121 (2×), 123, 125 % of control
dose: 150.0 mg/kg/injection, schedule: Q01DX009 (ip), vehicle: saline with Tween-80, evaluated on day 60
  T/C: 117, 121, 132 % of control
[5]
  T/C: 102, 107, 111, 112, 113, 119, 123, 125, 128, 135 % of control
dose: 150.0 mg/kg/injection, schedule: Q04DX005 (ip), vehicle: saline
  T/C: 136 % of control
dose: 200.0 mg/kg/injection, schedule: Q01DX009 (ip), vehicle: carboxymethylcellulose (CMC)
  survivor count: 5 of 6
dose: 200.0 mg/kg/injection, schedule: Q01DX009 (ip), vehicle: saline with Tween-80, evaluated on day 5
  T/C: 128 % of control
dose: 200.0 mg/kg/injection, schedule: Q01DX009 (ip), vehicle: saline with Tween-80, evaluated on day 45
  T/C: 125 % of control
dose: 200.0 mg/kg/injection, schedule: Q01DX009 (ip), vehicle: saline
  T/C: 126 % of control
dose: 200.0 mg/kg/injection, schedule: Q01DX009 (ip), vehicle: steroid suspending solution
  T/C: 134 % of control
dose: 200.0 mg/kg/injection, schedule: Q01DX017 (ip), vehicle: saline
  survivor count: 10 of 10
[6]
  T/C: 92, 97, 102, 105, 109, 110, 118, 143 % of control
  survivor count: 9 of 10, 10 of 10, 6 of 6
dose: 300.0 mg/kg/injection, schedule: Q01DX009 (ip), vehicle: saline with Tween-80, evaluated on day 5
  T/C: 74 % of control
dose: 300.0 mg/kg/injection, schedule: Q01DX009 (ip), vehicle: saline with Tween-80, evaluated on day 45
  T/C: 97 [5 of 6 alive], 107, 112, 125, 130 % of control
dose: 300.0 mg/kg/injection, schedule: Q01DX009 (ip), vehicle: saline with Tween-80, evaluated on day 60
  T/C: 102, 105, 134 % of control
[7]
  T/C: 91, 92, 102, 107, 109, 114, 115, 167 % of control
  survivor count: 5 of 6 and 6 of 6
dose: 360.0 mg/kg/injection, schedule: Q01DX009 (ip), vehicle: DMSO
  survivor count: 9 of 10
dose: 400.0 mg/kg/injection, schedule: Q01DX009 (ip), vehicle: distilled water + Tween-80
  survivor count: 7 of 10
dose: 400.0 mg/kg/injection, schedule: Q01DX009 (ip), vehicle: saline
  survivor count: 8 of 10
dose: 400.0 mg/kg/injection, schedule: Q01DX017 (ip), vehicle: saline
  survivor count: 9 of 10
dose: 400.0 mg/kg/injection, schedule: Q04DX003 (ip), vehicle: saline with Tween-80, evaluated on day 5
  T/C: 105 % of control
dose: 400.0 mg/kg/injection, schedule: Q04DX003 (ip), vehicle: saline with Tween-80, evaluated on day 6
  T/C: 103 [8 of 9 alive], 107 [8 of 9 alive], 112 % of control [8 of 9 alive]
dose: 600.0 mg/kg/injection, schedule: Q01DX009 (ip), vehicle: DMSO
  survivor count: 2 of 10

## C[n+]1ccccc1/C=N/O
[5]
  survivor count: 6 of 10
[7]
  survivor count: 1 of 10

## CN1CCN(Cc2nc3cccc4c3c([n+]2[O-])-c2ccccc2-4)CC1
dose: 400.0 mg/kg/injection, schedule: Q01DX009 (ip), vehicle: saline with Tween-80
  survivor count: 3 of 10

## CCCCCC(=O)c1ccc(O)cc1O
dose: 50.0 mg/kg/injection, schedule: Q01DX009 (ip), vehicle: gum acacia
  survivor count: 10 of 10

## CN(C)CC/C=C1\c2ccccc2C(C)(C)c2ccc(Cl)cc21
[3]
  survivor count: 4 of 6

## CN(C)CCCC1(C#N)c2ccccc2CCc2ccccc21
dose: 50.0 mg/kg/injection, schedule: Q01DX009 (ip), vehicle: saline
  survivor count: 10 of 10

## COc1cccc(/C=C/[N+](=O)[O-])c1
dose: 30.0 mg/kg/injection, schedule: Q01DX009 (ip), vehicle: saline with Tween-80
  survivor count: 8 of 10
dose: 45.0 mg/kg/injection, schedule: Q01DX009 (ip), vehicle: saline with Tween-80
  survivor count: 7 of 10
[2]
  survivor count: 6 of 10

## CC[C@@]1(O)C[C@H](OC2CC(N(C)C)C(OC3CC(O)C(O[C@@H]4O[C@@H](C)C(=O)C=C4N)C(C)O3)C(C)O2)c2c(cc3c(c2O)C(=O)c2c(O)ccc(O)c2C3=O)[C@H]1C(=O)OC (some centres not stated)
dose: 0.1 mg/kg/injection, schedule: Q01DX001 (ip), vehicle: saline
  T/C: 136 % of control
dose: 0.2 mg/kg/injection, schedule: Q01DX001 (ip), vehicle: saline
  T/C: 128 % of control
dose: 0.4 mg/kg/injection, schedule: Q01DX001 (ip), vehicle: saline
  T/C: 133 % of control
dose: 0.8 mg/kg/injection, schedule: Q01DX001 (ip), vehicle: saline
  T/C: 144 % of control
dose: 3.0 mg/kg/injection, schedule: Q01DX009 (ip), vehicle: saline
  survivor count: 10 of 10

## O=C(C(=O)c1cc(Br)ccc1O)c1cc(Br)ccc1O
[8]
  survivor count: 10 of 10

## CCCNC(C)(C)C(SSS)c1cccs1 (configuration not stated)
dose: 37.5 mg/kg/injection, schedule: Q04DX003 (ip), vehicle: alcohol
  survivor count: 10 of 10
dose: 75.0 mg/kg/injection, schedule: Q04DX003 (ip), vehicle: alcohol
  survivor count: 10 of 10
dose: 100.0 mg/kg/injection, schedule: Q01DX009 (ip), vehicle: alcohol
  survivor count: 9 of 10
dose: 150.0 mg/kg/injection, schedule: Q04DX003 (ip), vehicle: alcohol
  survivor count: 10 of 10
dose: 200.0 mg/kg/injection, schedule: Q01DX009 (ip), vehicle: alcohol
  survivor count: 7 of 10

## COC(=O)C(Cc1c[nH]c2ccccc12)NC(=O)C(NC(=O)OC(C)(C)C)C(C)C (configuration not stated)
dose: 100.0 mg/kg/injection, schedule: Q01DX009 (ip), vehicle: Klucel (hydroxypropylcellulose) (HPC)
  survivor count: 10 of 10
dose: 200.0 mg/kg/injection, schedule: Q01DX009 (ip), vehicle: Klucel (hydroxypropylcellulose) (HPC)
  survivor count: 10 of 10
[8]
  survivor count: 10 of 10

## CCC(C)C(CO)c1ccccc1 (configuration not stated)
[3]
  survivor count: 10 of 10
